Results: patent publication EP0638588A1 (TAKEDA CHEMICAL INDUSTRIES, LTD., priority 1993, dated 1995)
* marks the point of attachment. Cbz = O=C(OCc1ccccc1)*; OtBu = CC(C)(C)O*

Assay: general procedure: solution-phase peptide synthesis; WSC/HOBT; DIC/HONB; DEPC
Details: sodium salts (compounds 15-18)

Substance	step yield (coupling step)	step yield (late stage modification step)
(2R,6R)-2-(Boc-Gly-amino)-6,7-bis(PamO)-4-THT-Glu(O^tBu)-Gly-D-Glu(O^tBu)-O^tBu	yield 80%	–
(2R,6R)-2-(Boc-β-Ala-amino)-6,7-bis(PamO)-4-THT-Gly-Gly-Gly-Glu(O^tBu)-O^tBu	yield 50%	–
(2R,6R)-2-(Fmoc-Glu(O^tBu)-amino)-6,7-bis(PamO)-4-THT-Glu(O^tBu)-Gly-D-Glu(O^tBu)-O^tBu	yield 89%	–
(2R,6R)-2-(H-Glu(O^tBu)-amino)-6,7-bis(PamO)-4-THT-Glu(O^tBu)-Gly-D-Glu(O^tBu)-O^tBu	–	yield 76%
(2R,6R)-2-(H-Glu-amino)-6,7-bis(PamO)-4-THT-Glu-Gly-D-Glu-OH	–	yield 97%
(2R,6R)-2-(H-β-Ala-amino)-6,7-bis(PamO)-4-THT-Gly-Gly-Gly-Glu-OH	–	yield 100%
(2R,6R)-2-Fmoc-amino-6,7-bis(PamO)-4-THT-Gly-Gly-Gly-Glu(O^tBu)-O^tBu	yield 86%	–
(2R,6R)-2-amino-6,7-bis(PamO)-4-THT-Gly-Gly-Gly-Glu(O^tBu)-O^tBu	–	yield 94%
Cbz-GGGE(OtBu)-OtBu	yield 55%	–
